Test results reported in publication doi:10.1101/2023.09.28.559965.

Amino acid sequences for entries named in this document (tags omitted).
UniProt P15924: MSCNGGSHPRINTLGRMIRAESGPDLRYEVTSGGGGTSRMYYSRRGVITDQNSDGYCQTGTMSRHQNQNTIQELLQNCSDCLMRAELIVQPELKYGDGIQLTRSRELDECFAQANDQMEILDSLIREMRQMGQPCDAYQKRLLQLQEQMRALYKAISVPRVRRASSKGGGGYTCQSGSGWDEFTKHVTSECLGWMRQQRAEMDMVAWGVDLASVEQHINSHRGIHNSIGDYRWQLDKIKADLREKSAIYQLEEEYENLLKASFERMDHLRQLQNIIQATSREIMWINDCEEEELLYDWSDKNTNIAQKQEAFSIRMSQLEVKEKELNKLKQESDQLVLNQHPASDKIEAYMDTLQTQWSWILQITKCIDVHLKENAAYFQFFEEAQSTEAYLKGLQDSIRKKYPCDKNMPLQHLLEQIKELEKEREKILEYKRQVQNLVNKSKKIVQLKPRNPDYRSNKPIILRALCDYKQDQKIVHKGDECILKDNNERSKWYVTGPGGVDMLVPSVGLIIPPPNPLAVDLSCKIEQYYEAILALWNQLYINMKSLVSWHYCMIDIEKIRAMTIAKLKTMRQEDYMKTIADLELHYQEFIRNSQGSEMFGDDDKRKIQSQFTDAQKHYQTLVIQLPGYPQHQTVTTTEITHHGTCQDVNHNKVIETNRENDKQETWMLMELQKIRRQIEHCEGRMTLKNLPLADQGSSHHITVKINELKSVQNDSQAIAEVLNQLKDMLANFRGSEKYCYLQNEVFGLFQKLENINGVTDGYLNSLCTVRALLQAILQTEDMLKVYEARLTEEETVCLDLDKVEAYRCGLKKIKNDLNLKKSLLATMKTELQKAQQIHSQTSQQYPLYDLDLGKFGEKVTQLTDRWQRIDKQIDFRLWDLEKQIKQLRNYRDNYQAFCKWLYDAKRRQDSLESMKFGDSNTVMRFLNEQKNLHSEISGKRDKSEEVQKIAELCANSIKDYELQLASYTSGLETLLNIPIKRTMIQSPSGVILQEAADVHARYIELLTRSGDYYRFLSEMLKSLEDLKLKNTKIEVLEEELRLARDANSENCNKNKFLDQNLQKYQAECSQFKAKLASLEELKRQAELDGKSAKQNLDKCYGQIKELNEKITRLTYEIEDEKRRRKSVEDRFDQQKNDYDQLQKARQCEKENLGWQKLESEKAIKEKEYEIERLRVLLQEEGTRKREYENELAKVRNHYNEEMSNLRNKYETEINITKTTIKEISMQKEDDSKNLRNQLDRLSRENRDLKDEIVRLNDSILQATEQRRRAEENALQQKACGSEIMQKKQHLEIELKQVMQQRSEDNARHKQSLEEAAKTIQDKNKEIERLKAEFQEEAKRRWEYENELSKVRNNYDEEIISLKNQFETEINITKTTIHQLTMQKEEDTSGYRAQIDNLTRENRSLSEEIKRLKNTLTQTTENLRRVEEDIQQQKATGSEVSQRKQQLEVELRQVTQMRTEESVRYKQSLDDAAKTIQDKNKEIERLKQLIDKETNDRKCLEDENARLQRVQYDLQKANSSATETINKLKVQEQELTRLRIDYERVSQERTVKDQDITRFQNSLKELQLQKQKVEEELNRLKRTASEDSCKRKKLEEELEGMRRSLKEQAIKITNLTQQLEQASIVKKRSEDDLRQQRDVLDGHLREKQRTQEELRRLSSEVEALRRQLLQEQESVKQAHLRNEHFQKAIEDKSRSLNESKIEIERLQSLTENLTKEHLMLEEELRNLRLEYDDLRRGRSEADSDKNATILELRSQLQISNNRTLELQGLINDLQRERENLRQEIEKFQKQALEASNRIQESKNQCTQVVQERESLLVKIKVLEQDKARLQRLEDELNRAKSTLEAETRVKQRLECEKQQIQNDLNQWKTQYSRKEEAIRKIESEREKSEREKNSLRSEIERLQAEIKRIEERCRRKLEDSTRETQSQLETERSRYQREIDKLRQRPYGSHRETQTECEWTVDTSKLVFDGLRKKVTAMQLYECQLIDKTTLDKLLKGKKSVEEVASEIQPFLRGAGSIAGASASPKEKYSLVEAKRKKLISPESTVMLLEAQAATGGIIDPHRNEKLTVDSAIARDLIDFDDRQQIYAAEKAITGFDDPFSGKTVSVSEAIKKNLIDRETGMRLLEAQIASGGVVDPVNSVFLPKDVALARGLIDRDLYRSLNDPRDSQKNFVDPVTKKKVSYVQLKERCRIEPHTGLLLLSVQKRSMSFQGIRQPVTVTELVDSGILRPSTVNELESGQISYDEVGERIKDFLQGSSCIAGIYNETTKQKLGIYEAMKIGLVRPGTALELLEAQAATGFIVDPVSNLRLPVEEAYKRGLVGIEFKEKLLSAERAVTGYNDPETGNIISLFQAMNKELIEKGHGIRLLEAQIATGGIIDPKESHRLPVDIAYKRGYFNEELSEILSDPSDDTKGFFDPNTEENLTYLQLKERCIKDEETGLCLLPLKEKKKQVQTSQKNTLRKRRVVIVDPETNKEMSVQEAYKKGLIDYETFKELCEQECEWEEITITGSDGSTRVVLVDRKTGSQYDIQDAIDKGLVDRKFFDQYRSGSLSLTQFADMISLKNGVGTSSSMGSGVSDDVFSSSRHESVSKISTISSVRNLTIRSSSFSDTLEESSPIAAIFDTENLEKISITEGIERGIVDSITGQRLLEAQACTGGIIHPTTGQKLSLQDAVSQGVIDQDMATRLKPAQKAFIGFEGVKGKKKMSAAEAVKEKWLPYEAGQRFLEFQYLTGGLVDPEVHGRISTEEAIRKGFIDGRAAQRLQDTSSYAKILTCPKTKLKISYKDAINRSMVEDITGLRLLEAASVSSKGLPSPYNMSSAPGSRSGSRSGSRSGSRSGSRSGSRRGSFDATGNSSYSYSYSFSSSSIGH
UniProt P08670: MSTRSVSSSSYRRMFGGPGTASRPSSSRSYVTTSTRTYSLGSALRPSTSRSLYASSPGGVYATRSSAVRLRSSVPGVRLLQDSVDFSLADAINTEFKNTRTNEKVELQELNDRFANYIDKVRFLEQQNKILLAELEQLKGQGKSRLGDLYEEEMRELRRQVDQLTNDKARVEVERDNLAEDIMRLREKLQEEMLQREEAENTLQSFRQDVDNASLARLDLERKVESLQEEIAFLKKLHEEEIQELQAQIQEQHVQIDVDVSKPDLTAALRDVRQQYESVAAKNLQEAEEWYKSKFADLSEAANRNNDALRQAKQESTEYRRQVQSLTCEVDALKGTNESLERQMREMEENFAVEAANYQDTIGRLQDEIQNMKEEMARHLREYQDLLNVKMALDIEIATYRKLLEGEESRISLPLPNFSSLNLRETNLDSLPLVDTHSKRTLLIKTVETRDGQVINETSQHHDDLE

Columns and labels:
[1] = biological target: HER2 with eGFP tag, doxycycline-induced in MCF10A-Teti-HER2_GFP cells (UniProt P04626); test: affinity purification with mass spectrometry
[2] = biological target: HER2, endogenous in SKBR3 cells (human (endogenous in SKBR3)) (UniProt P04626); test: affinity purification with mass spectrometry

Row | binding [1] | binding [2] | Substance
1 | binds | binds | Desmoplakin (from UniProt P15924 1-2871)
2 | binds | binds | Vimentin (from UniProt P08670 1-466)

Results are given in words; binding and its absence hold for the method and conditions named. In cells and extracts the contact can be indirect. These calls come from enrichment with a bait or labelling near it, and not all partners need be listed.
